Test results as given in PubChem BioAssay AID330 (DTP/NCI, 2004).
The list shows only some results of the screen, not a fair sample: it covers a few groups of compounds. Other doses and runs of a compound may be missing. T/C is the treated group as % of the vehicle group. Some doses have a count of surviving animals in place of a T/C: the source holds a T/C of zero for them, seemingly a mark for toxic or unscored doses. Some survivor counts are full or nearly so, which does not show that the dose was tolerated: survival well below the control is almost never listed, so the zero probably covers shortened survival too. Counts of survivors are from the toxicity check (mostly the fifth day) where no day follows; animals may have died later. Schedules are NCI's codes, read here as Q, the interval in days (D) or hours (H), X, the number of doses. Where survival is the endpoint, the PubChem record calls one and a half times the control and up active, and a quarter to a half above the control has no call in these data; cut-offs in other NCI protocols can differ. Some T/C values carry the count of animals alive at the toxicity check (mostly the fifth day); without a count or a note in brackets, all were alive then. Some entries hold several experiments; the values are given in rising order. Some T/C values are marked as having no survivor count here; that says nothing about deaths at the dose. Some complexes appear as separate parts, the way the source draws them; their charges need not add up.

Test system: P388 leukemia ip, CD2F1 mice, survival T/C
Experiment: NCI In Vivo Anticancer Drug Screen. Data for tumor model P388 Leukemia (intraperitoneal) in CD2F1 (CDF1) mice
Conditions: T/C endpoint: median survival time, higher T/C = longer survival
[1] = dose: 10.0 mg/kg/injection, schedule: Q01DX009 (ip), vehicle: Klucel (hydroxypropylcellulose) (HPC)
[2] = dose: 20.0 mg/kg/injection, schedule: Q01DX009 (ip), vehicle: Klucel (hydroxypropylcellulose) (HPC)
[3] = dose: 40.0 mg/kg/injection, schedule: Q01DX009 (ip), vehicle: Klucel (hydroxypropylcellulose) (HPC)
[4] = dose: 50.0 mg/kg/injection, schedule: Q01DX009 (ip), vehicle: saline with Tween-80
[5] = dose: 10.0 mg/kg/injection, schedule: Q01DX009 (ip), vehicle: saline with Tween-80
[6] = dose: 20.0 mg/kg/injection, schedule: Q01DX009 (ip), vehicle: saline with Tween-80
[7] = dose: 40.0 mg/kg/injection, schedule: Q01DX009 (ip), vehicle: saline with Tween-80
[8] = dose: 100.0 mg/kg/injection, schedule: Q01DX009 (ip), vehicle: saline with Tween-80
[9] = dose: 100.0 mg/kg/injection, schedule: Q01DX001 (ip), vehicle: Klucel (hydroxypropylcellulose) (HPC)
[10] = dose: 200.0 mg/kg/injection, schedule: Q01DX001 (ip), vehicle: Klucel (hydroxypropylcellulose) (HPC)
[11] = dose: 400.0 mg/kg/injection, schedule: Q01DX001 (ip), vehicle: Klucel (hydroxypropylcellulose) (HPC)
[12] = dose: 12.5 mg/kg/injection, schedule: Q01DX009 (ip), vehicle: saline
[13] = dose: 25.0 mg/kg/injection, schedule: Q01DX009 (ip), vehicle: saline
[14] = dose: 50.0 mg/kg/injection, schedule: Q01DX009 (ip), vehicle: saline
[15] = dose: 100.0 mg/kg/injection, schedule: Q01DX009 (ip), vehicle: saline
[16] = dose: 200.0 mg/kg/injection, schedule: Q01DX009 (ip), vehicle: saline

**Q.** Which results are given for `Cc1cccc(N(CCCl)CCCl)c1`?
**A.** T/C (dose: 5.0 mg/kg/injection, schedule: Q01DX009 (ip), vehicle: Klucel (hydroxypropylcellulose) (HPC)): 104 % of control; T/C [1]: 114 and 144 % of control; survivor count [1]: 0 of 6; T/C [2]: 141 [4 of 6 alive] and 154 % of control; survivor count [2]: 0 of 6; T/C [3]: 178 and 184 % of control; survivor count [3]: 0 of 6

**Q.** For `O=C(Cn1nnc2ccccc21)N(CCCl)CCCl`, which T/C (dose: 30.0 mg/kg/injection, schedule: Q01DX005 (ip), vehicle: saline with Tween-80) is on record?
**A.** Its T/C is 89 % of control.

**Q.** And the T/C (dose: 60.0 mg/kg/injection, schedule: Q01DX005 (ip), vehicle: saline with Tween-80)?
**A.** Its T/C is 108 and 111 % of control.

**Q.** What about the T/C (dose: 120.0 mg/kg/injection, schedule: Q01DX005 (ip), vehicle: saline with Tween-80) of the same compound?
**A.** The T/C was 113 [5 of 6 alive] and 133 % of control [5 of 6 alive].

**Q.** And the T/C (dose: 240.0 mg/kg/injection, schedule: Q01DX005 (ip), vehicle: saline with Tween-80)?
**A.** The T/C was 155 and 178 % of control.

**Q.** `ClCC1CS1` (stereo not drawn) was tested. Which T/C (dose: 100.0 mg/kg/injection, schedule: Q01DX009 (ip), vehicle: saline sonified) did it give?
**A.** The T/C was 150 % of control.

**Q.** And the T/C (dose: 200.0 mg/kg/injection, schedule: Q01DX009 (ip), vehicle: saline sonified)?
**A.** Its T/C is 165 % of control.

**Q.** And the T/C (dose: 400.0 mg/kg/injection, schedule: Q01DX009 (ip), vehicle: saline sonified)?
**A.** The T/C was 90 % of control [4 of 6 alive].

**Q.** How did the T/C [4] turn out when `CCOP(=O)(O)CC.[U]` was run?
**A.** The T/C was 87 [survivor count not shown] and 94 % of control [survivor count not shown].

**Q.** Which results are given for `CN(C)c1ncnc2c1NP(C)(=O)N2` (stereo not drawn)?
**A.** T/C (dose: 50.0 mg/kg/injection, schedule: Q04DX003 (ip), vehicle: Klucel (hydroxypropylcellulose) (HPC)): 100 % of control [survivor count not shown]; T/C (dose: 100.0 mg/kg/injection, schedule: Q04DX003 (ip), vehicle: Klucel (hydroxypropylcellulose) (HPC)): 105 % of control [survivor count not shown]; T/C (dose: 200.0 mg/kg/injection, schedule: Q04DX003 (ip), vehicle: Klucel (hydroxypropylcellulose) (HPC)): 94 % of control [survivor count not shown]; T/C (dose: 400.0 mg/kg/injection, schedule: Q04DX003 (ip), vehicle: Klucel (hydroxypropylcellulose) (HPC)): 96 % of control [survivor count not shown]

**Q.** Which results are given for `ClCCN(CCCl)c1ccc(CN2CCCCC2)cc1.O=[N+]([O-])c1cc([N+](=O)[O-])c(O)c([N+](=O)[O-])c1`?
**A.** T/C [5]: 104 % of control; T/C [6]: 106 % of control; T/C (dose: 25.0 mg/kg/injection, schedule: Q01DX009 (ip), vehicle: saline with Tween-80): 118 % of control; T/C [7]: 131 % of control; T/C [4]: 125 % of control; T/C (dose: 80.0 mg/kg/injection, schedule: Q01DX009 (ip), vehicle: saline with Tween-80): 136 % of control; T/C [8]: 132 % of control

**Q.** For `COP(C)(=O)O.[Gd]`, which T/C (dose: 50.0 mg/kg/injection, schedule: Q04DX003 (ip), vehicle: saline) is on record?
**A.** The T/C was 102 % of control [survivor count not shown].

**Q.** And the T/C (dose: 100.0 mg/kg/injection, schedule: Q04DX003 (ip), vehicle: saline)?
**A.** Its T/C is 96 % of control [survivor count not shown].

**Q.** And the T/C (dose: 200.0 mg/kg/injection, schedule: Q04DX003 (ip), vehicle: saline)?
**A.** Its T/C is 95 % of control [survivor count not shown].

**Q.** For `COP(C)(=O)O.[V]`, which T/C (dose: 50.0 mg/kg/injection, schedule: Q01DX001 (ip), vehicle: saline with Tween-80) is on record?
**A.** Its T/C is 101 % of control [survivor count not shown].

**Q.** What about the T/C (dose: 100.0 mg/kg/injection, schedule: Q01DX001 (ip), vehicle: saline with Tween-80) of the same compound?
**A.** The T/C was 93 [survivor count not shown] and 105 % of control [survivor count not shown].

**Q.** For `CN([PH+](F)F)[PH+](F)F.CN([PH+](F)F)[PH+](F)F.CN([PH+](F)F)[PH+](F)F.[C-]#[O+].[C-]#[O+].[Co].[Co]`, which T/C [9] is on record?
**A.** Its T/C is 107 % of control.

**Q.** And the T/C [10]?
**A.** Its T/C is 99 % of control.

**Q.** And the T/C [11]?
**A.** The T/C was 95 % of control.

**Q.** With `CC(=O)C1=CCCC2CCC1N2` (stereo not drawn) as the compound, how does the T/C (dose: 50.0 micrograms/kg/injection, schedule: Q01DX009 (ip), vehicle: saline + alcohol) read?
**A.** The T/C was 97 % of control.

**Q.** What about the T/C (dose: 100.0 micrograms/kg/injection, schedule: Q01DX009 (ip), vehicle: saline + alcohol) of the same compound?
**A.** The T/C was 100 % of control.

**Q.** What about the T/C (dose: 200.0 micrograms/kg/injection, schedule: Q01DX009 (ip), vehicle: saline + alcohol) of the same compound?
**A.** The T/C was 101 % of control.

**Q.** What about the T/C (dose: 400.0 micrograms/kg/injection, schedule: Q01DX009 (ip), vehicle: saline + alcohol) of the same compound?
**A.** Its T/C is 101 % of control.

**Q.** What does the source list for `CC(Cl)CN(CC(C)Cl)C(=O)OCC(N)C(=O)O` (stereo not drawn)?
**A.** T/C [12]: 100 % of control; T/C [13]: 95 % of control; T/C [14]: 104 % of control; T/C [15]: 100 % of control; T/C [16]: 95 % of control

**Q.** How did the T/C (dose: 100.0 mg/kg/injection, schedule: Q04DX002 (ip), vehicle: saline with Tween-80) turn out when `CC(C)OP(C)(=O)O.[Yb]` was run?
**A.** The T/C was 89 % of control [survivor count not shown].

**Q.** And the T/C (dose: 200.0 mg/kg/injection, schedule: Q04DX002 (ip), vehicle: saline with Tween-80)?
**A.** The T/C was 98 % of control [survivor count not shown].

**Q.** And the T/C (dose: 400.0 mg/kg/injection, schedule: Q04DX002 (ip), vehicle: saline with Tween-80)?
**A.** Its T/C is 114 % of control [survivor count not shown].

**Q.** What does the source list for `CC(C)(C)[Si](C)(C)OC(=O)N(CCCl)CCCl`?
**A.** T/C [9]: 131 % of control; T/C [10]: 137 % of control; T/C [11]: 174 % of control

**Q.** What does the source list for `COC(=O)c1ccc(N2CCOP2(=O)Cl)cc1O` (stereo not drawn)?
**A.** T/C [8]: 95 % of control; T/C (dose: 200.0 mg/kg/injection, schedule: Q01DX009 (ip), vehicle: saline with Tween-80): 106 % of control [5 of 6 alive]; survivor count (dose: 400.0 mg/kg/injection, schedule: Q01DX009 (ip), vehicle: saline with Tween-80): 0 of 6

**Q.** `CC1(CCl)COP(=O)(n2cnc3ccccc32)OC1` (stereo not drawn) was tested. Which T/C (dose: 60.0 mg/kg/injection, schedule: Q01DX005 (ip), vehicle: Klucel (hydroxypropylcellulose) (HPC)) did it give?
**A.** The T/C was 101 % of control.

**Q.** And the T/C (dose: 120.0 mg/kg/injection, schedule: Q01DX005 (ip), vehicle: Klucel (hydroxypropylcellulose) (HPC))?
**A.** The T/C was 100 % of control.

**Q.** And the T/C (dose: 240.0 mg/kg/injection, schedule: Q01DX005 (ip), vehicle: Klucel (hydroxypropylcellulose) (HPC))?
**A.** The T/C was 96 % of control [4 of 6 alive].

**Q.** Which results are given for `N#CSC(Cl)(Cl)C(Cl)Cl`?
**A.** T/C (dose: 6.25 mg/kg/injection, schedule: Q01DX009 (ip), vehicle: saline): 97 % of control [4 of 6 alive]; T/C [12]: 109 % of control; T/C [13]: 109 % of control; survivor count [14]: 6 of 6; survivor count [15]: 6 of 6; T/C [16]: 90 % of control

**Q.** `CC(=O)Nc1ccc(N(CCCl)CCCl)cc1C` was tested. Which survivor count [9] did it give?
**A.** Its survivor count is 6 of 6.

**Q.** What about the survivor count [10] of the same compound?
**A.** The survivor count was 2 of 6.

**Q.** What about the survivor count [11] of the same compound?
**A.** Its survivor count is 0 of 6.

**Q.** What does the source list for `[N-]=[N+]=N/C=C/c1ccc([N+](=O)[O-])o1`?
**A.** T/C [12]: 99 % of control; T/C [13]: 117 % of control; T/C [14]: 103 and 107 % of control [4 of 6 alive]; survivor count (dose: 50.0 mg/kg/injection, schedule: Q01DX009 (ip), vehicle: suspension in saline): 2 of 6; T/C [15]: 112 % of control; T/C (dose: 100.0 mg/kg/injection, schedule: Q01DX009 (ip), vehicle: suspension in saline): 110 % of control; T/C [16]: 99 % of control [5 of 6 alive]; T/C (dose: 200.0 mg/kg/injection, schedule: Q01DX009 (ip), vehicle: suspension in saline): 107 % of control [5 of 6 alive]

**Q.** What does the source list for `CN(CCCl)CCCCCCCl`?
**A.** T/C (dose: 1.25 mg/kg/injection, schedule: Q01DX009 (ip), vehicle: saline with Tween-80): 100 % of control; T/C (dose: 2.5 mg/kg/injection, schedule: Q01DX009 (ip), vehicle: saline with Tween-80): 97 % of control; T/C (dose: 5.0 mg/kg/injection, schedule: Q01DX009 (ip), vehicle: saline with Tween-80): 110 % of control; T/C [5]: 124 % of control; T/C [6]: 138 % of control; T/C [7]: 133 % of control
